These results are taken from article PMC8009681.

In test [1] the target is T1, phyA-BD (Arabidopsis thaliana) (UniProt P14712).
T1 sequence: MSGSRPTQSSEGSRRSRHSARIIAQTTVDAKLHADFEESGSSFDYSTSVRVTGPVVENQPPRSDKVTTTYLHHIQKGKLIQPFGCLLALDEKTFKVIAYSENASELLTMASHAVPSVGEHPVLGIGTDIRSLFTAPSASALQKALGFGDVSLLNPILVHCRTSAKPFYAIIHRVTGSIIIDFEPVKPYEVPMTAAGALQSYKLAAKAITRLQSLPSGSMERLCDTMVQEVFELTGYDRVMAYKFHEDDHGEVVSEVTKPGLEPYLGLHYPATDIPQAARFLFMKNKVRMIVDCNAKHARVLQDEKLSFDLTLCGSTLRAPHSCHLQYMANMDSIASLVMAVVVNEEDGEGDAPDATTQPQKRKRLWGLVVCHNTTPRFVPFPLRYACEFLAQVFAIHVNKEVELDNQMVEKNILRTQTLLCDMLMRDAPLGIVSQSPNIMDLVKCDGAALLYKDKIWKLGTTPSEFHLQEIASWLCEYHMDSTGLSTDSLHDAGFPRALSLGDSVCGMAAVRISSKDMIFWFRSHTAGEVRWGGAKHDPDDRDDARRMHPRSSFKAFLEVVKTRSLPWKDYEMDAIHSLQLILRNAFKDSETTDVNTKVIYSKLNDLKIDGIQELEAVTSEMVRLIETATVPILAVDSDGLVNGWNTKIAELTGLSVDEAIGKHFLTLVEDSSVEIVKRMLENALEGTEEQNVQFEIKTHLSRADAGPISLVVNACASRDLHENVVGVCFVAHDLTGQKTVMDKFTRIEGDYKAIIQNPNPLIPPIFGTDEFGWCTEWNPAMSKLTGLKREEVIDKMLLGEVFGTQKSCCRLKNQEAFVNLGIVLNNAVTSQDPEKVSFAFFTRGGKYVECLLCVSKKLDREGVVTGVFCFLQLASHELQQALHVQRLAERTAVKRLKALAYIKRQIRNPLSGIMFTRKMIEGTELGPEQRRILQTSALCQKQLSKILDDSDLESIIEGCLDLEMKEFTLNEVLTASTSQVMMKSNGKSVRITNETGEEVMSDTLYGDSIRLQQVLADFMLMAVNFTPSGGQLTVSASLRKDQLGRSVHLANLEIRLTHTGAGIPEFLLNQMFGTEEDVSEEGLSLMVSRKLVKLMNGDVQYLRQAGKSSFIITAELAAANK
Description: two-hybrid; growth assay, AH109, CSM LTH- plates with 20 μM phycocyanobilin and 5 mM 3-AT, FR light (740 nm; phyA Pr), 26°C.

Test [2] has as its target T1, phyA-BD (Arabidopsis thaliana). Briefly: two-hybrid; growth assay, AH109, CSM LTH- plates with 20 μM phycocyanobilin and 3-AT (5, 10 or 30 mM by panel), R light (660 nm; phyA Pfr), 26°C.
The target is the same in test [3]. Description: yeast three-hybrid competition assay; AH109 with a two-hybrid pair and a NOT1 fragment as potential competitor; R light, CSM LTH- plates with 20 μM phycocyanobilin and increasing amounts of 3-AT.

These are yes or no findings as the source states them, for the method shown. Some entries that bind do so weakly or less than the wild type. Where a sequence is shown, tags or fusion partners need not be part of it.

B1: AD-FHY1 (protein, UniProt Q8S4Q6 1-202)
chain: MPEVEVDNNNEKPSEINSFHHMIISSSKNVLKMEEVEVSKKRKFQTDQSDELSLLPLSKHTCFANVACSENTNGNSEIDTEYSMSSYVNSTTSMECNNDIEMKEESSGSCGEDKMISFESHLDYIYGTQNLEDFSEKVIENILYLDEQEEEEEDAKGCSSNAAKFVLSSGRWTVNQDDSTLHETKKPTIDQEFEQYFSTLML
For the molecule B1, the results for the binding entry in test [1], in test [2] and in test [3] were “no binding (condition: FR light (phyA in the Pr state))”, “binds” and “binds”, respectively.
